Test results reported in the supplement of paper PMC10849652.
The list shows a part of the results.

By UniProt entry, the sequences of proteins in these tests, tags left out. Where a name states a change or a piece, a line headed by the entry shows the natural chain unless it says otherwise.
UniProt Q86U06: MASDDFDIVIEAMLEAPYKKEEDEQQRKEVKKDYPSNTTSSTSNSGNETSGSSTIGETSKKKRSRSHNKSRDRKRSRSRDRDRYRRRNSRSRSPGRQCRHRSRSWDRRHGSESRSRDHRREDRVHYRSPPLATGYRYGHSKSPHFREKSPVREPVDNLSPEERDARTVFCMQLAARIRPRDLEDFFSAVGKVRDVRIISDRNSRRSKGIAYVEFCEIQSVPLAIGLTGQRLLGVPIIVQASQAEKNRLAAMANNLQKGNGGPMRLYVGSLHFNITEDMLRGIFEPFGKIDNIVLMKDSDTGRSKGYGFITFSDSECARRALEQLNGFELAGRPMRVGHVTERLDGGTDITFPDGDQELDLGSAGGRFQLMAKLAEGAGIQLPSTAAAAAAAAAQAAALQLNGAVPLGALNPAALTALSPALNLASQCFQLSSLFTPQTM
UniProt O00194: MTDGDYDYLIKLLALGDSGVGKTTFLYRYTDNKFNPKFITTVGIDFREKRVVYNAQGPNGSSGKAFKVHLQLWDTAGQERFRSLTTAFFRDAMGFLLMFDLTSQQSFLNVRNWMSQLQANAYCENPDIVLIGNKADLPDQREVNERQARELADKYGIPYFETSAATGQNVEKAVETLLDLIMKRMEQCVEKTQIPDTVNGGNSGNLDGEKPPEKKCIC
UniProt A4D1S5: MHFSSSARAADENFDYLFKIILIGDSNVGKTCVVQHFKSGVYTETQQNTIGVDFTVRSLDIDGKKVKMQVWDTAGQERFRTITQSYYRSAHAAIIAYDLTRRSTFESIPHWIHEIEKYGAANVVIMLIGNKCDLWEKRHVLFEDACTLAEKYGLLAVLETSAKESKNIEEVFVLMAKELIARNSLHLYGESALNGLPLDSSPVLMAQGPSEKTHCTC
UniProt Q9H5N1: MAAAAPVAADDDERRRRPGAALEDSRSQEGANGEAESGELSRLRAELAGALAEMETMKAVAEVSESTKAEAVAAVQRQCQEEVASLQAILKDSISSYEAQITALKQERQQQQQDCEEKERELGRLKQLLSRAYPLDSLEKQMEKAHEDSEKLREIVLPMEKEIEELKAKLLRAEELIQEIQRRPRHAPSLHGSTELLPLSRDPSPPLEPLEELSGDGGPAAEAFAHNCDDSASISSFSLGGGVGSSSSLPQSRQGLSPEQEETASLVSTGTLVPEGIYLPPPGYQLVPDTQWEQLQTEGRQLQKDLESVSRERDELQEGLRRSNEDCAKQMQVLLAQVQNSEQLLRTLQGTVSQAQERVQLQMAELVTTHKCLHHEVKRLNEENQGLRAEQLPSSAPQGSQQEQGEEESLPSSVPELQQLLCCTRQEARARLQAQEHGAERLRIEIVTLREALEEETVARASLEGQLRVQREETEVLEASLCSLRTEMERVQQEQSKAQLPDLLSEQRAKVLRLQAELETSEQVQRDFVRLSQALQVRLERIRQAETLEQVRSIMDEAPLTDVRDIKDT
UniProt Q9BXF6: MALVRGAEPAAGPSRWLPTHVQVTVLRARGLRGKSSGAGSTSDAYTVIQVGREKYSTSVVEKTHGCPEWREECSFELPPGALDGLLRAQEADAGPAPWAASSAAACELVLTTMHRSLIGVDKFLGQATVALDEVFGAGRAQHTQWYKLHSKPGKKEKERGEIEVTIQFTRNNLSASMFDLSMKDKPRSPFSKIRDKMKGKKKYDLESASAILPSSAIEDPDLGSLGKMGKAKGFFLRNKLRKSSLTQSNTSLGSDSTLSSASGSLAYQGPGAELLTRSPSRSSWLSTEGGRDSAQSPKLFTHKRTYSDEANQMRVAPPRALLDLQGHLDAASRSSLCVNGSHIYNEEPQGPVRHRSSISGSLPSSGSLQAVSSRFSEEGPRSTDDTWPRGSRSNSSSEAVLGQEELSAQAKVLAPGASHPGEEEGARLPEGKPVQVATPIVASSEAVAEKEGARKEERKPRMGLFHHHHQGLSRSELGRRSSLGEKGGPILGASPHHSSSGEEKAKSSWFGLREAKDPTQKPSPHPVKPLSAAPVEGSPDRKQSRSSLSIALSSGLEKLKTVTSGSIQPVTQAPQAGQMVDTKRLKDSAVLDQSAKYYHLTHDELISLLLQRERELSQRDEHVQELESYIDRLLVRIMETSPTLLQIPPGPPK
UniProt O95716: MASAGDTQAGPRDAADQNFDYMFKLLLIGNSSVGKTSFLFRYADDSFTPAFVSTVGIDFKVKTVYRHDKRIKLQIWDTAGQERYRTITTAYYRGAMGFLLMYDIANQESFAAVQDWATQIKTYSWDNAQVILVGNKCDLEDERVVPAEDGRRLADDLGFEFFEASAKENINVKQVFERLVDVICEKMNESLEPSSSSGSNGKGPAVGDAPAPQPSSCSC
UniProt O15315: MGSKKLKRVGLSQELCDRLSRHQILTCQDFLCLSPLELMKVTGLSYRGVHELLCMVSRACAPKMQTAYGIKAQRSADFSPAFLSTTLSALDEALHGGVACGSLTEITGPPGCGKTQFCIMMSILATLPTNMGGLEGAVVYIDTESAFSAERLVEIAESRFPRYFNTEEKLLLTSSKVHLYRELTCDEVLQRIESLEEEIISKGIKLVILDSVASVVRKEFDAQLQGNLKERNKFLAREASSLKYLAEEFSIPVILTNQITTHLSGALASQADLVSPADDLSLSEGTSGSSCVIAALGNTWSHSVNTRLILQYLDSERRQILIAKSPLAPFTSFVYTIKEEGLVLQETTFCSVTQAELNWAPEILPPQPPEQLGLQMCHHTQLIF
UniProt O75771: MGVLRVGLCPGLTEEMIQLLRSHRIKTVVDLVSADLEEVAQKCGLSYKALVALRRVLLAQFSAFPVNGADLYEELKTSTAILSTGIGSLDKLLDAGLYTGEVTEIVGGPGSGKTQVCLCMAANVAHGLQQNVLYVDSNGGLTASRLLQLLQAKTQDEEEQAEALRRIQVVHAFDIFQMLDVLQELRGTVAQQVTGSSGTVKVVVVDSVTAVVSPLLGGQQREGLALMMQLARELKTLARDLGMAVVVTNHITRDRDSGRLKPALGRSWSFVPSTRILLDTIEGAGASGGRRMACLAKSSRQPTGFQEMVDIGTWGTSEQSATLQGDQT
UniProt Q5T8P6: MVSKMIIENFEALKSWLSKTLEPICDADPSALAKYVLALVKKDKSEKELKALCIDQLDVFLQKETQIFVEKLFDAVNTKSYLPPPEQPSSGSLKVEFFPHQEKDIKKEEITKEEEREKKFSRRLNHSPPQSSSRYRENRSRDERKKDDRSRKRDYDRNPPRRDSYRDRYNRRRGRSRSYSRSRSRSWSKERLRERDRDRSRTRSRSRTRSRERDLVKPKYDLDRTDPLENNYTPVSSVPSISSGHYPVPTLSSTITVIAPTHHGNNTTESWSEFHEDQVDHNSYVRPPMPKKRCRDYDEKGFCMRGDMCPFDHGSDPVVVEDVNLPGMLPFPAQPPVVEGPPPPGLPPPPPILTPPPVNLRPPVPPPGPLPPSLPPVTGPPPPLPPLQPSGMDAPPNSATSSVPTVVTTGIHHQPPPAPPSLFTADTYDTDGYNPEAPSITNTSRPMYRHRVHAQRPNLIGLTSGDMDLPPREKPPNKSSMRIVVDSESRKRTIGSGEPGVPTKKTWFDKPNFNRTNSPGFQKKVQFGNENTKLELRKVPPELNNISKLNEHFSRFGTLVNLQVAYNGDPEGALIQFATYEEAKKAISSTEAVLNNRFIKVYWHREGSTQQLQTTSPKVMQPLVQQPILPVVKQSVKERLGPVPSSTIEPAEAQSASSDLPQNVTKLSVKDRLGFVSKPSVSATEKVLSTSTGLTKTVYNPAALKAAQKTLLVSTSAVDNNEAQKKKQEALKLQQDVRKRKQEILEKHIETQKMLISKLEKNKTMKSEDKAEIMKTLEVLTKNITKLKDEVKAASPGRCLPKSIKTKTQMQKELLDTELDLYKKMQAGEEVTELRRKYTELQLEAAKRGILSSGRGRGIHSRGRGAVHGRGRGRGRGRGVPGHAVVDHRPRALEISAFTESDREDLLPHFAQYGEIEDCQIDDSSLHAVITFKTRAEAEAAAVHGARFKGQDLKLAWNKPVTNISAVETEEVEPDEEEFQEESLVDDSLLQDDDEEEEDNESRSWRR
UniProt Q96PK6: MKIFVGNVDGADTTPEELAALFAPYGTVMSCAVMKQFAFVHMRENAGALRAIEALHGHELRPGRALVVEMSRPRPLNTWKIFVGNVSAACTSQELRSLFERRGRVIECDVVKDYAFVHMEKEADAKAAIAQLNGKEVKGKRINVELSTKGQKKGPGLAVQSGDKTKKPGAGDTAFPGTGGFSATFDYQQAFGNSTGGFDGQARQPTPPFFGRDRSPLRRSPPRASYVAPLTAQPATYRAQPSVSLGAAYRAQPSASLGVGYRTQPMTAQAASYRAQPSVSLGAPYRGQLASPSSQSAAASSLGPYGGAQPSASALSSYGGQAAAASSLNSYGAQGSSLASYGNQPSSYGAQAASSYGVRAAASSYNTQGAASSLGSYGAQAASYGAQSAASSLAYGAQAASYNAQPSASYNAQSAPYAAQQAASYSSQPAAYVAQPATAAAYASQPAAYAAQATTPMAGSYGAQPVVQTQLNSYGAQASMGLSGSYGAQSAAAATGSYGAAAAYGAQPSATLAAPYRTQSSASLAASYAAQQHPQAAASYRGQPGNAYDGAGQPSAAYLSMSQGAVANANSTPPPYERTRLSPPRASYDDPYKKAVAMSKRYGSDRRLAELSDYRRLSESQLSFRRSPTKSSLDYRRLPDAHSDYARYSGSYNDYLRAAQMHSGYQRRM
UniProt Q9BYM8: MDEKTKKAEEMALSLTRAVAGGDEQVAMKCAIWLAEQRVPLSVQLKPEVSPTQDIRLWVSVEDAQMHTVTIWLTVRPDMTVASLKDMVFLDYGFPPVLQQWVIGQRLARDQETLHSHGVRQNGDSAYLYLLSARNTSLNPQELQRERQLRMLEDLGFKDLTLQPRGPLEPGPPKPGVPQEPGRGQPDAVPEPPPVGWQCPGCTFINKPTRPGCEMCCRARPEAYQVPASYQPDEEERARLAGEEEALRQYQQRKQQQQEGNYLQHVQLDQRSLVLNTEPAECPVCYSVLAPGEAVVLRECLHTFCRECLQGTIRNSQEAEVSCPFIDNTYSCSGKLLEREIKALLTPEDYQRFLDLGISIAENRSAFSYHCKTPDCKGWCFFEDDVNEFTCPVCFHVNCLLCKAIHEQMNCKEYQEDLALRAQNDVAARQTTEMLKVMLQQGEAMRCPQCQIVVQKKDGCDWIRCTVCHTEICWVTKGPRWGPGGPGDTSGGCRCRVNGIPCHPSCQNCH
UniProt P20337: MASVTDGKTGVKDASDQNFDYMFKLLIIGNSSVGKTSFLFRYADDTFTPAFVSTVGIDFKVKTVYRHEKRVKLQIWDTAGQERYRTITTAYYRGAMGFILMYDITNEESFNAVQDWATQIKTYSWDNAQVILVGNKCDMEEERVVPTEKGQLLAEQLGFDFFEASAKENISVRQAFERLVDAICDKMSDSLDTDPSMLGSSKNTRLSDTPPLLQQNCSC
UniProt P28749: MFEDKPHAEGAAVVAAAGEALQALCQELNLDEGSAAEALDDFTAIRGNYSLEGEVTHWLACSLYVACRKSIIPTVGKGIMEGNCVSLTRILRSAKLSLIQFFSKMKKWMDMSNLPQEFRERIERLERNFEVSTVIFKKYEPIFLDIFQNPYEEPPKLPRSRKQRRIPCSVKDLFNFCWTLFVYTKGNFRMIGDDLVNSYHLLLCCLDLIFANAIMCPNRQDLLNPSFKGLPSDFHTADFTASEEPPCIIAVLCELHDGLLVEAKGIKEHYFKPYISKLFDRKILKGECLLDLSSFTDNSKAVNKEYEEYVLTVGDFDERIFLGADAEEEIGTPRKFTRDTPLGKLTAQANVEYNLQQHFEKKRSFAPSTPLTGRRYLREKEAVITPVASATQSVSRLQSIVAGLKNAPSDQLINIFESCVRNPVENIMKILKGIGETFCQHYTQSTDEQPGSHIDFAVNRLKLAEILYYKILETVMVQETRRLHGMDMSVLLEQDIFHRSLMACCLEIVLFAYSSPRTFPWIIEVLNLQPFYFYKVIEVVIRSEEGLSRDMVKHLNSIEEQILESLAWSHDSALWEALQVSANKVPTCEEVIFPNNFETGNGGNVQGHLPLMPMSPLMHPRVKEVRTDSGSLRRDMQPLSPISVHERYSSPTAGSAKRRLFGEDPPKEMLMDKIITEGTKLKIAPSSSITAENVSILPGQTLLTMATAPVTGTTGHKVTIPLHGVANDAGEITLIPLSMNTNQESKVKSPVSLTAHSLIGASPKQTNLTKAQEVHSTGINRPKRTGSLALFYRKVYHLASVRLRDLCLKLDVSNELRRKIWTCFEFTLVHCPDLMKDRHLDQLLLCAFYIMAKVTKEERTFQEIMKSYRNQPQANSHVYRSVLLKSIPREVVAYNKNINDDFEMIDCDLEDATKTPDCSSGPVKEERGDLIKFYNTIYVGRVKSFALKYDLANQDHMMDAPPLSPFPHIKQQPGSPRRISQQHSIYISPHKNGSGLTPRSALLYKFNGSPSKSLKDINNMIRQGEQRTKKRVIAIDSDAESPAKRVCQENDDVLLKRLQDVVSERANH

How the values were obtained:
Assay in all cases: log2 fold change, soluble protein after heating vs DMSO (PISA); higher = thermal stabilisation; K562 cells, 10 uM, 30 min; active = over 0.2 and 3.5 SD of the protein, either way, in both replicates (recomputed)
[1] = compound: C/C(=N\NC(=O)C1=CC(=CC=C1)S(=O)(=O)N2CCOCC2)/C3=C(C=CC(=C3)Cl)O
Outline: (§1)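 K562 cells at 2×10^6 cells/mL were treated with 10 μM compound for 30 min. Aliquots were heated for 3 min across 48°C-58°C, pooled, and extracted in PBS with 0.5% NP-40 at 4°C; soluble protein was the supernatant after 21,000xg for 90 min. Soluble protein was quantified by TMTpro 16plex LC-MS/MS with channel sums equalised, and reported as log2 fold change in thermal stability against DMSO controls, with values from duplicates.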

[2] = compound: C1=CC(=C(C=C1Cl)C2=NC3=NC=CN=C3C(=N2)NC4=CC=NC=C4)F
Outline: as §1

[3] = compound: C1=CC2=C(C=CC(=C2)/C=C\3/C(=O)NC(=NCC4=CC=CS4)S3)N=C1
Outline: as §1

[4] = compound: C1=CC2=NC=CN=C2C=C1/C=C/3\C(=O)NC(=O)S3
Outline: as §1

[5] = compound: C1=CC=C(C=C1)C2=NC(=C(N2)C3=CC=NC=C3)C4=CC(=C(C=C4)Cl)O
Outline: as §1

[6] = compound: C1=CC=C2C(=C1)C3=NNC4=CC=CC(=C43)C2=O
Outline: as §1

[7] = compound: C1CCN(C1)C(=O)NC2=CC=CC(=C2)NC3=NC=C(C(=N3)NCCC4=CN=CN4)Br
Outline: as §1

[8] = compound: C1CN(CCC1(CC2=CC=C(C=C2)Cl)N)C3=NC=NC4=C3C=CN4
Outline: as §1

erlotinib = compound: C#Cc1cccc(Nc2ncnc3cc(OCCOC)c(OCCOC)cc23)c1 [erlotinib]
Outline: as §1

[9] = compound: C1=CC(=CC=C1C2=NC3=C(N2)C=C(C=C3)C(=O)N)OC4=CC=C(C=C4)Cl
Outline: as §1

Measured: log2 fold change

RALGAPB (UniProt Q86X10)
inactive: [1] 0.012 | [2] 0.072 | [3] -0.132 | [4] -0.016 | [5] -0.083 | [6] -0.003 | [7] -0.063 | [8] -0.098

RBM23 (UniProt Q86U06)
inactive: erlotinib -0.163 | [2] -0.05 | [9] 0.19 | [4] 0.024 | [5] -0.179

RAB27B (UniProt O00194)
inactive: erlotinib -0.007 | [1] 0.092 | [9] 0.031 | [3] -0.079 | [4] 0.087 | [5] 0.083 | [6] 0.031 | [7] -0.182 | [8] 0.011

RAB19 isoform 2 (UniProt A4D1S5)
inactive: [2] 0.331 | [4] 0.099

RBBP8 isoform 2 (UniProt Q99708)
inactive: erlotinib -0.073 | [1] 0.232 | [9] 0.002 | [3] -0.225 | [6] -0.032 | [7] -0.087 | [8] -0.21

RABEP2 (UniProt Q9H5N1)
inactive: erlotinib 0.069 | [9] 0.022 | [5] 0.061

RAP1B (UniProt F5GWU8)
inactive: [1] -0.438 | [3] 0.145 | [5] 0.34 | [6] -0.163

RAB11FIP5 (UniProt Q9BXF6)
inactive: [5] -0.189

RAB18 (UniProt H0Y6T8)
inactive: [4] 0.128 | [7] 0.185 | [8] 0.186

RASSF3 (UniProt Q86WH2)
inactive: erlotinib 0.032 | [1] -0.016 | [9] 0.028 | [3] -0.044 | [4] 0.2 | [5] 0.099 | [6] -0.018

RASA2 (UniProt Q15283)
inactive: [1] -0.401 | [2] -0.011 | [3] 0.374 | [4] -0.118 | [5] -0.628 | [6] -0.229

RAB3D (UniProt O95716)
inactive: erlotinib -0.094 | [1] 0.036 | [9] -0.141 | [3] -0.055 | [4] 0.006 | [5] -0.145 | [6] -0.058 | [7] 0.007 | [8] 0.036

RAPGEF5, A0A590UJR0
inactive: erlotinib 0.534 | [1] -0.628 | [9] -0.178 | [3] 0.476 | [4] -0.016 | [5] -0.032 | [6] 0.211 | [7] 0.168 | [8] -0.031

RAD51B (UniProt O15315)
inactive: erlotinib 0.11 | [1] -0.223 | [2] 0.136 | [9] -0.017 | [3] -0.306 | [4] 0 | [6] 0 | [7] -0.089 | [8] 0.138

RAD51D (UniProt O75771)
inactive: erlotinib -0.023 | [1] 0.055 | [9] -0.025 | [3] -0.054 | [4] 0.102 | [5] 0.287 | [6] -0.074 | [7] 0.029 | [8] -0.031

RBM26 isoform 3 (UniProt Q5T8P6)
inactive: [1] 0.22 | [3] -0.079 | [6] -0.149

RBKS (UniProt Q9H477)
inactive: [1] -0.311 | [3] 0.027 | [5] -0.034 | [6] 0.363

RBM14 (UniProt Q96PK6)
inactive: erlotinib 0.086 | [1] -0.318 | [9] 0.069 | [3] 0.362 | [4] 0.044 | [5] 0.001 | [6] -0.172 | [7] -0.064 | [8] -0.529

Reprinted at random: two entries already listed, in no set order.
RBKS (UniProt Q9H477)
inactive: [1] -0.311 | [3] 0.027 | [5] -0.034 | [6] 0.363

RBM14 (UniProt Q96PK6)
inactive: erlotinib 0.086 | [1] -0.318 | [9] 0.069 | [3] 0.362 | [4] 0.044 | [5] 0.001 | [6] -0.172 | [7] -0.064 | [8] -0.529

(cont.)

RBCK1 (UniProt Q9BYM8)
inactive: erlotinib 0.026 | [1] 0.116 | [2] 0.059 | [9] 0.034 | [3] 0.123 | [6] 0.04 | [7] -0.057 | [8] -0.029

RANBP3 isoform 2 (UniProt Q9H6Z4)
inactive: erlotinib 0.095 | [9] 0.061 | [4] 0.121 | [7] 0.042 | [8] 0.158

RAB3B (UniProt P20337)
inactive: erlotinib 0 | [9] 0.073 | [5] -0.161 | [7] -0.078 | [8] -0.089

RBL1 (UniProt P28749)
inactive: erlotinib 0.215 | [9] -0.149 | [4] 0.054
